{
  "sequences": {"note": "Sequences of proteins named here, by UniProt entry; tags and fusion partners are left off.", "UniProt P41595, whole entry": "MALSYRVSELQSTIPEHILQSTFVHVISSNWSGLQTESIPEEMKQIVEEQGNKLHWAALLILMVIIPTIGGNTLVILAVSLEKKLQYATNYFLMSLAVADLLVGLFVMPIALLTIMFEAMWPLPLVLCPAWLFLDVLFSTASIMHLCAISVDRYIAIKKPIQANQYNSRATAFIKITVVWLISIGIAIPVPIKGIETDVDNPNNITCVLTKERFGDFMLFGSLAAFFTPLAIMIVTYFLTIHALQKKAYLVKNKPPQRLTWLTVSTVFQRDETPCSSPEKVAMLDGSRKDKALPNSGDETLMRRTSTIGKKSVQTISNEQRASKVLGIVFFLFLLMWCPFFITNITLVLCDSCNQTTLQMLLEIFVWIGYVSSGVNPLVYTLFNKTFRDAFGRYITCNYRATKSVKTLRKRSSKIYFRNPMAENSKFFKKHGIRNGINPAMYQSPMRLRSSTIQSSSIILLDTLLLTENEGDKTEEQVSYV"},
  "source": "BindingDB's records for doi:10.1161/01.cir.102.23.2836",
  "about": "(Nih, 2000)",
  "molecular_target": "5-hydroxytryptamine receptor 2B (Homo sapiens, UniProt P41595)",
  "data": [
    {"smiles": "CC[C@@H](CO)NC(=O)[C@@H]1C=C2c3cccc4c3c(cn4C)C[C@H]2N(C)C1", "values": [
      {"measurement": "Ki", "result": 9.1, "unit": "nM"}
    ]}
  ]
}
